These are yes or no findings as the source states them, for the method shown. Some binding calls cover weakened binding; strength is not graded here.

The assay concerns the target T1, 重组AFP抗原(爱必信生物，货号Abt-P-28) (UniProt P02771).
T1 sequence (looked up): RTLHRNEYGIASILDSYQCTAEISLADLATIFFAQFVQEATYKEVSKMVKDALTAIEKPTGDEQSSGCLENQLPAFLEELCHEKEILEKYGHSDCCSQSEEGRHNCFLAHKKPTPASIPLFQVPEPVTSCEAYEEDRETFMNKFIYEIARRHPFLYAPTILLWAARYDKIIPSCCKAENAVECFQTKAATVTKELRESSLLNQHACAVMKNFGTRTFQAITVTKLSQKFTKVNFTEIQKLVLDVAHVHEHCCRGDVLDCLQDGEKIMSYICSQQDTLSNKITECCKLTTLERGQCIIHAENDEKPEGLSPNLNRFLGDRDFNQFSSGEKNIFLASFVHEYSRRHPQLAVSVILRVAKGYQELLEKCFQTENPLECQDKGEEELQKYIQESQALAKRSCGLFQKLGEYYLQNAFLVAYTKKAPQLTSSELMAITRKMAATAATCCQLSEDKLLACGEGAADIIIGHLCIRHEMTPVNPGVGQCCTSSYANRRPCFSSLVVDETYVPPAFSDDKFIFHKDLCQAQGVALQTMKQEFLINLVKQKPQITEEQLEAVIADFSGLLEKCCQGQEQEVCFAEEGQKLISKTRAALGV
Nature of the assay: SPR, Biacore, AFP antigen coupled to chip, bispecific as analyte, 1:1 binding fit. Background: Surface plasmon resonance follows binding to a sensor surface in real time, without labels.

B1: 抗AFP双特异性纳米抗体 1A6-(G4S)4-1E11 (bispecific antibody)
chain: QVQLQESGGALVQPGGSLKLSCAASESIFSFAAMGWYRQAPGKQRELVARITGGDNINYADSVKGRFTISKDNAKNTAYLQMNSLKPEDTAVYYCNGEGYGSSWFDDGKNYWGKGTQVTVSSGGGGSGGGGSGGGGSGGGGSQVQLQESGGGLVQPGGSLRVSCAASESIFSFAAMGWYRQAPGKQRELVARITGGDNINYADSVKGRFTISKDNAKNTVYLQMNSLKPEDTAVYYCNGEGYGSSWFDDGKNYWGKGTQVTVSS
Turning to B1, the binding result was “binds”.
